In PMC10478442:
Results are given in words; binding and its absence hold for the method and conditions named. In cells and extracts the contact can be indirect. Some results given as binding are weak or reduced against the parent protein; the word gives no strength. Where a sequence is shown, tags or fusion partners need not be part of it.

Target: T1, ERCC Exception Repair 6 Like (ERCC6L), DDK-tagged (UniProt Q2NKX8)
T1 sequence: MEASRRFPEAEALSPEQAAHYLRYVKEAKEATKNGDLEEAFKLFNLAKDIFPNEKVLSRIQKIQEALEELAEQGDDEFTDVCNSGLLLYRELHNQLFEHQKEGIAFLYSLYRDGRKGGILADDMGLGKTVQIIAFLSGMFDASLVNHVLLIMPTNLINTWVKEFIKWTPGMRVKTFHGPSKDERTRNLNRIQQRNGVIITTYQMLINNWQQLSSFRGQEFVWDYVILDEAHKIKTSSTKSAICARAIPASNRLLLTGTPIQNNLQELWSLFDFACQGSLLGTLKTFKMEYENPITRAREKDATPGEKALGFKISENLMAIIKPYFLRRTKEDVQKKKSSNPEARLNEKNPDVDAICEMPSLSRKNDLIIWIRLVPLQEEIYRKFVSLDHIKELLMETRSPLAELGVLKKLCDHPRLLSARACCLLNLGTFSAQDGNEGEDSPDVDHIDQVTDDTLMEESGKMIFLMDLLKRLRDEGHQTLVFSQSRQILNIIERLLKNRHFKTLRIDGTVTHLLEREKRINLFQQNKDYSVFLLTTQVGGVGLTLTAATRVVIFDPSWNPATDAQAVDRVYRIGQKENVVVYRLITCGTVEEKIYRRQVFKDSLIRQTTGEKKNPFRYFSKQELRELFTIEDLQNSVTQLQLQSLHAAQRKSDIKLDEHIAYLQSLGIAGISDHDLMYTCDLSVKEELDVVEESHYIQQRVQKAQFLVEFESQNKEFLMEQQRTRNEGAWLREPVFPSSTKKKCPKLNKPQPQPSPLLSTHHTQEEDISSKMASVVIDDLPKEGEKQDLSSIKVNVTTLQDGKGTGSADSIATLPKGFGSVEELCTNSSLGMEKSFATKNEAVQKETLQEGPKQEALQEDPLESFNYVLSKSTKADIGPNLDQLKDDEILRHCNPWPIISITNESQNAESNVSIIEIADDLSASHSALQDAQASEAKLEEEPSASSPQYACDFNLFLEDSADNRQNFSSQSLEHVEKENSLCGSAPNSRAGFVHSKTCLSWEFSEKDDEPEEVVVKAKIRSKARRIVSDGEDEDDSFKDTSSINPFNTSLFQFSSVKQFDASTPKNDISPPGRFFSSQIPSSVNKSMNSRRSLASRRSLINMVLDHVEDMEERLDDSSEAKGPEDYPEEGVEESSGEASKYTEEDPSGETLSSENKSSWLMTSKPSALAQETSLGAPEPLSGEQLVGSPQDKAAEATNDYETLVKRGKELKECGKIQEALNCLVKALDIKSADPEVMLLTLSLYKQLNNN
Test: co-IP; 293T cells transfected with ERCC6L-DDK and KIF4A plasmids separately or jointly; IP lysis buffer; supernatant with protein A/G agarose beads and anti-DDK beads overnight at 4 °C; Western blotting

binding: binds
B1: kinesin family member 4 (KIF4A) (protein, UniProt O95239 1-1232)
chain: MKEEVKGIPVRVALRCRPLVPKEISEGCQMCLSFVPGEPQVVVGTDKSFTYDFVFDPSTEQEEVFNTAVAPLIKGVFKGYNATVLAYGQTGSGKTYSMGGAYTAEQENEPTVGVIPRVIQLLFKEIDKKSDFEFTLKVSYLEIYNEEILDLLCPSREKAQINIREDPKEGIKIVGLTEKTVLVALDTVSCLEQGNNSRTVASTAMNSQSSRSHAIFTISLEQRKKSDKNSSFRSKLHLVDLAGSERQKKTKAEGDRLKEGININRGLLCLGNVISALGDDKKGGFVPYRDSKLTRLLQDSLGGNSHTLMIACVSPADSNLEETLNTLRYADRARKIKNKPIVNIDPQTAELNHLKQQVQQLQVLLLQAHGGTLPGSITVEPSENLQSLMEKNQSLVEENEKLSRGLSEAAGQTAQMLERIILTEQANEKMNAKLEELRQHAACKLDLQKLVETLEDQELKENVEIICNLQQLITQLSDETVACMAAAIDTAVEQEAQVETSPETSRSSDAFTTQHALRQAQMSKELVELNKALALKEALARKMTQNDSQLQPIQYQYQDNIKELELEVINLQKEKEELVLELQTAKKDANQAKLSERRRKRLQELEGQIADLKKKLNEQSKLLKLKESTERTVSKLNQEIRMMKNQRVQLMRQMKEDAEKFRQWKQKKDKEVIQLKERDRKRQYELLKLERNFQKQSNVLRRKTEEAAAANKRLKDALQKQREVADKRKETQSRGMEGTAARVKNWLGNEIEVMVSTEEAKRHLNDLLEDRKILAQDVAQLKEKKESGENPPPKLRRRTFSLTEVRGQVSESEDSITKQIESLETEMEFRSAQIADLQQKLLDAESEDRPKQRWENIATILEAKCALKYLIGELVSSKIQVSKLESSLKQSKTSCADMQKMLFEERNHFAEIETELQAELVRMEQQHQEKVLYLLSQLQQSQMAEKQLEESVSEKEQQLLSTLKCQDEELEKMREVCEQNQQLLRENEIIKQKLTLLQVASRQKHLPKDTLLSPDSSFEYVPPKPKPSRVKEKFLEQSMDIEDLKYCSEHSVNEHEDGDGDDDEGDDEEWKPTKLVKVSRKNIQGCSCKGWCGNKQCGCRKQKSDCGVDCCCDPTKCRNRQQGKDSLGTVERTQDSEGSFKLEDPTEVTPGLSFFNPVCATPNSKILKEMCDVEQVLSKKTPPAPSPFDLPELKHVATEYQENKAPGKKKKRALASNTSFFSGCSPIEEEAH
